From paper PMC11099055 come the findings set out here.

Amino acid sequences for entries named in this document (tags omitted).
UniProt O95071: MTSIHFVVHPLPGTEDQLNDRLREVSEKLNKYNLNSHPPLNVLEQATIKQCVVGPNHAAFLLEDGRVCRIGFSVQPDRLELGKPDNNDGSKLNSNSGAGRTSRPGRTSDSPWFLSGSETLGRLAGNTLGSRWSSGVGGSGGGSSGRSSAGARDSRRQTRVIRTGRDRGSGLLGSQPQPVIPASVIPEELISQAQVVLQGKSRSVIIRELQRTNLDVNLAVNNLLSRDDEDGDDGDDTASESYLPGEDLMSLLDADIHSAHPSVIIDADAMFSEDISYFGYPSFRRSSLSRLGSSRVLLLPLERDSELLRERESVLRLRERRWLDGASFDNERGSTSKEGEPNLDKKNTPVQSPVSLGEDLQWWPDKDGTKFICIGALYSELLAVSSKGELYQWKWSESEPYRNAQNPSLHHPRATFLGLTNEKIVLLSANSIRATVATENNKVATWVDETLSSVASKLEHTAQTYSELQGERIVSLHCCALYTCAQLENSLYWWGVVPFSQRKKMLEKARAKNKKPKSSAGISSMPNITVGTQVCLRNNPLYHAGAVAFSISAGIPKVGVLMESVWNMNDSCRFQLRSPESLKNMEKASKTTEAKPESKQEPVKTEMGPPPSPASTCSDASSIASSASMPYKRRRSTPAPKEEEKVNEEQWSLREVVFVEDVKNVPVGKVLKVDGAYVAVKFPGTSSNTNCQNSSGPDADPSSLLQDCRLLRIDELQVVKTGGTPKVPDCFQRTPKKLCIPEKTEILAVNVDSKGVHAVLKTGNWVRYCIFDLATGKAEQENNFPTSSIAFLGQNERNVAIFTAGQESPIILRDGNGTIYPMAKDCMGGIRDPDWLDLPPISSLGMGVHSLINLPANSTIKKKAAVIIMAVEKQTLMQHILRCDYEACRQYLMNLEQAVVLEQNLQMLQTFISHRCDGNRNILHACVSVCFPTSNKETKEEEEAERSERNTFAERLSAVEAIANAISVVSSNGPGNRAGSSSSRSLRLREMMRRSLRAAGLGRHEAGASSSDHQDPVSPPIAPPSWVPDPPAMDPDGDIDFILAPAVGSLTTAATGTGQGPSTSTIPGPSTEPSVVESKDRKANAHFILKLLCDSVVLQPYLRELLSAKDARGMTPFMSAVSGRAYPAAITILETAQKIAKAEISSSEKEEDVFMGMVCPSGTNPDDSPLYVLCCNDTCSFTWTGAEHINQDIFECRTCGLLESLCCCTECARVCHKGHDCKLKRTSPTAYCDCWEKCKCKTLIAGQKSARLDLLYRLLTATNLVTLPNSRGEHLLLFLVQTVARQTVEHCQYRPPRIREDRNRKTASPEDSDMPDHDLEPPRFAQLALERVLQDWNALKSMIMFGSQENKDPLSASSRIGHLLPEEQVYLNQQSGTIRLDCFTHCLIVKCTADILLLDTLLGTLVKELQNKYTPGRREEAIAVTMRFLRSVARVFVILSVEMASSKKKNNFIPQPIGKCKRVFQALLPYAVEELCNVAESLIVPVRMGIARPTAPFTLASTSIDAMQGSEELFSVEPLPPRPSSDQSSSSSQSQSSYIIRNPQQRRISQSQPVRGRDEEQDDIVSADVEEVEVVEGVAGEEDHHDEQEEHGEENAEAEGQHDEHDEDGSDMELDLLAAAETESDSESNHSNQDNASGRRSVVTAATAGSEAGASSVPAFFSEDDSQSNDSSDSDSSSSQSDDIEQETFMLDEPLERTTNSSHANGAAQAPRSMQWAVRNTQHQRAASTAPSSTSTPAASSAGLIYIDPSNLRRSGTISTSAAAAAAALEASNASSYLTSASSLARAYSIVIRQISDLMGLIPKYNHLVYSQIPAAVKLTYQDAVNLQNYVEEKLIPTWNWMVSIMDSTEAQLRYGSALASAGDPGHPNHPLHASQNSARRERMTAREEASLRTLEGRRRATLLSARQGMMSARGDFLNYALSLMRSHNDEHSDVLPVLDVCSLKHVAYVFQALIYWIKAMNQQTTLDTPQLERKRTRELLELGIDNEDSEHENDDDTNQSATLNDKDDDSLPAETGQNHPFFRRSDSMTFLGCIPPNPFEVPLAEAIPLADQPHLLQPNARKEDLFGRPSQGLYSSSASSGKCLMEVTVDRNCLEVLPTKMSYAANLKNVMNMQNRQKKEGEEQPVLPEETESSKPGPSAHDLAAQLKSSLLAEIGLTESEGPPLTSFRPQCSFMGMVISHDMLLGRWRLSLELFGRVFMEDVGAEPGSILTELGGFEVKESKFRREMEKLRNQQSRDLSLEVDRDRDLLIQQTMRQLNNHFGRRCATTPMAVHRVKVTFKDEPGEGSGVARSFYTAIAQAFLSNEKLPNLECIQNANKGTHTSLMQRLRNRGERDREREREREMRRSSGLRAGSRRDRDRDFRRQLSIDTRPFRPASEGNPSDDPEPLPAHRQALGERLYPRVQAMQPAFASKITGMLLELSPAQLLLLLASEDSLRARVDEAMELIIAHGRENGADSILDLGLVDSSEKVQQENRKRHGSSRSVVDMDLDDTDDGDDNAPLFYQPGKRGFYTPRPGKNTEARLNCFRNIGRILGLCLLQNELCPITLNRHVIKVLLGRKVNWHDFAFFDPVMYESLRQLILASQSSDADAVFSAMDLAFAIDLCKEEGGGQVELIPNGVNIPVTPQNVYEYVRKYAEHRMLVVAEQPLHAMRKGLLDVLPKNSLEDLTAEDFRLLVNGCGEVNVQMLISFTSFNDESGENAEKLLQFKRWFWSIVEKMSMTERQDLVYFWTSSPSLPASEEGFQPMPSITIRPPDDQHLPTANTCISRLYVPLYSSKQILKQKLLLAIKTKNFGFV

The assay concerns the target ubiquitin-protein ligase E3 module N-recognition 5 (UBR5) (human (endogenous in AsPC-1-G/R and PANC-1-G/R)) (UniProt O95071). Nature of the assay: co-IP; lysates of AsPC-1-G/R and PANC-1-G/R cells; magnetic beads and primary reagent added to the supernatant, shaken overnight at low temperature; washed three times; western blot. A general note: A western blot detects proteins with antibodies after separation by electrophoresis.

These are yes or no findings as the source states them, for the method shown. In cells and extracts the contact can be indirect. Some entries that bind do so weakly or less than the wild type.

B1: O-GlcNAase (OGA) (enzyme, UniProt O60502 1-916)
chain: MVQKESQATLEERESELSSNPAASAGASLEPPAAPAPGEDNPAGAGGAAVAGAAGGARRFLCGVVEGFYGRPWVMEQRKELFRRLQKWELNTYLYAPKDDYKHRMFWREMYSVEEAEQLMTLISAAREYEIEFIYAISPGLDITFSNPKEVSTLKRKLDQVSQFGCRSFALLFDDIDHNMCAADKEVFSSFAHAQVSITNEIYQYLGEPETFLFCPTEYCGTFCYPNVSQSPYLRTVGEKLLPGIEVLWTGPKVVSKEIPVESIEEVSKIIKRAPVIWDNIHANDYDQKRLFLGPYKGRSTELIPRLKGVLTNPNCEFEANYVAIHTLATWYKSNMNGVRKDVVMTDSEDSTVSIQIKLENEGSDEDIETDVLYSPQMALKLALTEWLQEFGVPHQYSSRQVAHSGAKASVVDGTPLVAAPSLNATTVVTTVYQEPIMSQGAALSGEPTTLTKEEEKKQPDEEPMDMVVEKQEETDHKNDNQILSEIVEAKMAEELKPMDTDKESIAESKSPEMSMQEDCISDIAPMQTDEQTNKEQFVPGPNEKPLYTAEPVTLEDLQLLADLFYLPYEHGPKGAQMLREFQWLRANSSVVSVNCKGKDSEKIEEWRSRAAKFEEMCGLVMGMFTRLSNCANRTILYDMYSYVWDIKSIMSMVKSFVQWLGCRSHSSAQFLIGDQEPWAFRGGLAGEFQRLLPIDGANDLFFQPPPLTPTSKVYTIRPYFPKDEASVYKICREMYDDGVGLPFQSQPDLIGDKLVGGLLSLSLDYCFVLEDEDGICGYALGTVDVTPFIKKCKISWIPFMQEKYTKPNGDKELSEAEKIMLSFHEEQEVLPETFLANFPSLIKMDIHKKVTDPSVAKSMMACLLSSLKANGSRGAFCEVRPDDKRILEFYSKLGCFEIAKMEGFPKDVVILGRSL
Turning to B1, the binding result is “binds”.
